Assay results taken from patent publication US11780901B2, “Analogues of parathyroid hormone (1-34) that function as agonists of the parathyroid hormone receptor-1 and display modified activity profiles” (Wisconsin Alumni Research Foundation, priority 2013, dated 2023).
Where two headings read alike, the source gives them in different places. For part of these data: Not every detail of the peptide structures is certain; ends, links or a residue may be inferred. For part of these data: At least one compound was matched to its structure with a doubt left. Starred links: 1 amine or outer side, 2 acyl side, 3 side chain; linkers in the order of their positions; H or OH if unused. Non-standard residues stand in square brackets, D forms with d. Residues, ends and D or L forms follow the SMILES beside them. *: point of attachment. X3 = O=C([C@H](CO)CN[*:1])[*:2]; X11 = NC[C@H](CO)C(=O)*; X8 = NC[C@@H](CO)C(=O)*

Chains of the proteins cited; added tags and fusions are not shown. Residues count along the entry.
UniProt P49190, 25-550: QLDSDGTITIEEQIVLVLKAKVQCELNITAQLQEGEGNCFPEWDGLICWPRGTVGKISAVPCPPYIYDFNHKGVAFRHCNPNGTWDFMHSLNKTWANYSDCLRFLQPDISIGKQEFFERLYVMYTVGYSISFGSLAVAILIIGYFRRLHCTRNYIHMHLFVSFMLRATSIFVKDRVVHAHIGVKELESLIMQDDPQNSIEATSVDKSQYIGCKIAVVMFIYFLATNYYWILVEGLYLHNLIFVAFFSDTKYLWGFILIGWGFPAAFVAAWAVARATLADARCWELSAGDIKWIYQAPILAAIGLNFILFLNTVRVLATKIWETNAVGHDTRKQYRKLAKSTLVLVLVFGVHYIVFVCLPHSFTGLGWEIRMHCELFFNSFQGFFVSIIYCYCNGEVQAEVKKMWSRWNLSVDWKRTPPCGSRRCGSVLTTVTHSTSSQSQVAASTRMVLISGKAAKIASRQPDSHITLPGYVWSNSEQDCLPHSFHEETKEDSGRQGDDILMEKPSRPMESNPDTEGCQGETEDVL

Legend:
RG state of PTHR1 = biological target: T1, RG state of PTHR1 (Homo sapiens, UniProt Q03431); assay: Radio-ligand-displacement binding, RG state of PTHR1; conditions: read-out: PTHR1 RG-IC50
T1 sequence (Q03431 27-593): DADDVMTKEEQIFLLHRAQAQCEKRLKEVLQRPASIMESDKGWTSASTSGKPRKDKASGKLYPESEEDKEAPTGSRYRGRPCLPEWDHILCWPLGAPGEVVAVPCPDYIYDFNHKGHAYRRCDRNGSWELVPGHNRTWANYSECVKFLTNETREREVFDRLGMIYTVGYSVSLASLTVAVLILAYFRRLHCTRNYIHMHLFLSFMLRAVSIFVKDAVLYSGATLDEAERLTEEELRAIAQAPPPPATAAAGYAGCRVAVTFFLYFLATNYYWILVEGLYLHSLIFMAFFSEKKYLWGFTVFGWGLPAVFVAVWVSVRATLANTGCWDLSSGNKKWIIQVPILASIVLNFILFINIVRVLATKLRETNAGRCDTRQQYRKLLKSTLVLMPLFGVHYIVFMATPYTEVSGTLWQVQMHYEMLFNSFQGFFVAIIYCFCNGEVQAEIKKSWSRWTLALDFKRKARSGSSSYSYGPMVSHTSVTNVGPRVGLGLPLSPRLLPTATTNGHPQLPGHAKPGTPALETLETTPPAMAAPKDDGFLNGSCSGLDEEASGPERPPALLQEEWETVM

PTHR2 = PTHR2 (Homo sapiens, UniProt P49190); assay: PTHR2 activation, cAMP production (GloSensor) in HEK293 cells; assay type: cell-based; design: expressed in transfected cells; key to PTHR2 Activation: Derivative EC50/PTH EC50: *** denotes poor tolerance of β amino acid for PTHR2 activation; conditions: for PTHR2 Activation: Derivative EC50/PTH EC50: normalized to EC50 of PTH(1-34)-NH2 ([…] printed), cAMP production
Excerpt: The assays employ HEK-293 cells that have been engineered to express the appropriate receptor. GloSensor-based detection of cAMP provides a read-out of receptor activation. […] (Carter, P. H. et al. Actions of the Small Molecule Ligands SW106 and AH-3960 on the Type-1 Parathyroid Hormone Receptor. Molecular Endocrinology 29, 307-321 (2015).)
FIGS. 10A and 10B depict dose-response curves of PTHR1 activation (FIG. 10A) and PTHR2 activation (FIG. 10B) in HEK293 cells stably expressing PTHR1 or PTHR2. For PTHR1 activation and all the binding data, data represent mean±s.e.m from three independent measurements; For PTHR2 activation, data represent mean±s.e.m from four independent measurements. Curves were fit to the data using a four-parameter sigmoidal dose-response equation.

RG state of PTHR2 = RG state of PTHR2 (Homo sapiens, UniProt P49190); assay: Binding assay, RG state of PTHR2; conditions: read-out: PTHR2 RG-IC50
PTHR1 = biological target: T2, PTHR1 (Homo sapiens, UniProt Q03431); assay: PTHR1 activation, cAMP production (GloSensor) in HEK293 cells; assay type: cell-based; design: expressed in transfected cells; conditions: for PTHR1 Activation: Derivative EC50/PTH EC50: normalized to EC50 of PTH(1-34)-NH2 ([…]), cAMP production
T2 sequence (Q03431 27-593): T1 sequence (Q03431 27-593)
Excerpt: The assays employ HEK-293 cells that have been engineered to express the appropriate receptor. GloSensor-based detection of cAMP provides a read-out of receptor activation.
For PTHR1 activation and all the binding data, data represent mean±s.e.m from three independent measurements; For PTHR2 activation, data represent mean±s.e.m from four independent measurements. Curves were fit to the data using a four-parameter sigmoidal dose-response equation.
For cAMP dose-response assays, monolayers of confluent HEK 293 cells were pre-incubated with buffer containing d-luciferin (0.5 mM) in 96 well plates at room temperature until a stable baseline level of luminescence was established (30 min). Varying concentrations of agonist were then added, and the time course of luminescence response was recorded using a Perkin Elmer plate reader following α/β-peptide addition.

PTHR1 and PTHR2 = assay: Tolerance pattern of β residues for PTHR1 and PTHR2 activation; assay type: cell-based; design: key: “*” denotes potent PTHR1-selective agonism; “#” denotes potent PTHR2-selective agonism; “*#” denotes potent agonism of both PTHR1 and PTHR2; conditions: PTHR1 vs PTHR2 agonism
Excerpt: Enhanced selectivity via double α→β replacement.

**Q.** How did the IC50 (RG state of PTHR1) turn out when `CC[C@H](C)[C@H](NC(=O)[C@H](CCC(=O)O)NC(=O)[C@H](CO)NC(=O)[C@@H](CNC(=O)[C@@H](N)CO)C(C)C)C(=O)N[C@@H](CCC(N)=O)CC(=O)N[C@@H](CC(C)C)C(=O)N[C@@H](CCSC)C(=O)N[C@@H](Cc1c[nH]cn1)C(=O)N[C@@H](CC(N)=O)C(=O)N[C@@H](CC(C)C)C(=O)NCC(=O)N[C@@H](CCCCN)C(=O)N[C@@H](Cc1c[nH]cn1)C(=O)N[C@@H](CC(C)C)C(=O)N[C@@H](CC(N)=O)C(=O)N[C@@H](CO)C(=O)N[C@@H](CCSC)C(=O)N[C@@H](CCC(=O)O)C(=O)N[C@@H](CCCNC(=N)N)C(=O)N[C@H](C(=O)N[C@@H](CCC(=O)O)C(=O)N[C@@H](Cc1c[nH]c2ccccc12)C(=O)N[C@@H](CC(C)C)C(=O)N[C@@H](CCCNC(=N)N)C(=O)N[C@@H](CCCCN)C(=O)N[C@@H](CCCCN)C(=O)N[C@@H](CC(C)C)C(=O)N[C@@H](CCC(N)=O)C(=O)N[C@@H](CC(=O)O)C(=O)N[C@H](C(=O)N[C@@H](Cc1c[nH]cn1)C(=O)N[C@@H](CC(N)=O)C(=O)N[C@@H](Cc1ccccc1)C(N)=O)C(C)C)C(C)C` [Ligand 15] was run?
**A.** The IC50 was 0.8 ± 0.08 nM.

**Q.** What about the EC50 (PTHR2; Table 5, HEK293 cells stably expressing PTHR2, read-out: PTHR2 EC50) of the same compound?
**A.** The EC50 was 0.13 ± 0.01 nM.

**Q.** And the IC50 (RG state of PTHR2)?
**A.** The IC50 was 0.84 ± 0.19 nM.

**Q.** What about the EC50 (PTHR1; Table 5, HEK293 cells stably expressing PTHR1, read-out: PTHR1 EC50) of the same compound?
**A.** The EC50 was 22.9 ± 1.5 nM.

**Q.** For `CC[C@H](C)[C@H](NC(=O)[C@H](CCC(=O)O)NC(=O)[C@H](CO)NC(=O)[C@@H](NC(=O)[C@@H](CN)CO)C(C)C)C(=O)N[C@@H](CCC(N)=O)C(=O)N[C@@H](CC(C)C)C(=O)N[C@@H](CCSC)C(=O)N[C@@H](Cc1c[nH]cn1)C(=O)N[C@@H](CC(N)=O)C(=O)N[C@@H](CC(C)C)C(=O)NCC(=O)N[C@@H](CCCCN)C(=O)N[C@@H](Cc1c[nH]cn1)C(=O)N[C@@H](CC(C)C)C(=O)N[C@@H](CC(N)=O)C(=O)N[C@@H](CO)C(=O)N[C@@H](CCSC)C(=O)N[C@@H](CCC(=O)O)C(=O)N[C@@H](CCCNC(=N)N)C(=O)N[C@H](C(=O)N[C@@H](CCC(=O)O)C(=O)N[C@@H](Cc1c[nH]c2ccccc12)C(=O)N[C@@H](CC(C)C)C(=O)N[C@@H](CCCNC(=N)N)C(=O)N[C@@H](CCCCN)C(=O)N[C@@H](CCCCN)C(=O)N[C@@H](CC(C)C)C(=O)N[C@@H](CCC(N)=O)C(=O)N[C@@H](CC(=O)O)C(=O)N[C@H](C(=O)N[C@@H](Cc1c[nH]cn1)C(=O)N[C@@H](CC(N)=O)C(=O)N[C@@H](Cc1ccccc1)C(N)=O)C(C)C)C(C)C` [SEQ. ID. NO: 22] (X8-VSEIQLMHNLGKHLNSMERVEWLRKKLQDVHNF-NH2), which “Tolerance Pattern of β AA” value (PTHR1 and PTHR2) is on record?
**A.** The value was “*”.

**Q.** And the “PTHR2 Activation: Derivative EC50/PTH EC50” value (PTHR2)?
**A.** Its value is 6.86.

**Q.** What about the “PTHR1 Activation: Derivative EC50/PTH EC50” value (PTHR1) of the same compound?
**A.** The value was 0.92.

**Q.** How did the EC50 (PTHR2; HEK-293 cells, GloSensor cAMP, read-out: EC50 (nM) of PTHR2 Activation) turn out when `CC[C@H](C)[C@H](NC(=O)[C@H](CCC(=O)O)NC(=O)[C@H](CO)CNC(=O)[C@@H](NC(=O)[C@@H](N)CO)C(C)C)C(=O)N[C@@H](CCC(N)=O)C(=O)N[C@@H](CC(C)C)C(=O)N[C@@H](CCSC)C(=O)N[C@@H](Cc1c[nH]cn1)C(=O)N[C@@H](CC(N)=O)C(=O)N[C@@H](CC(C)C)C(=O)NCC(=O)N[C@@H](CCCCN)C(=O)N[C@@H](Cc1c[nH]cn1)C(=O)N[C@@H](CC(C)C)C(=O)N[C@@H](CC(N)=O)C(=O)N[C@@H](CO)C(=O)N[C@@H](CCSC)C(=O)N[C@@H](CCC(=O)O)C(=O)N[C@@H](CCCNC(=N)N)C(=O)N[C@H](C(=O)N[C@@H](CCC(=O)O)C(=O)N[C@@H](Cc1c[nH]c2ccccc12)C(=O)N[C@@H](CC(C)C)C(=O)N[C@@H](CCCNC(=N)N)C(=O)N[C@@H](CCCCN)C(=O)N[C@@H](CCCCN)C(=O)N[C@@H](CC(C)C)C(=O)N[C@@H](CCC(N)=O)C(=O)N[C@@H](CC(=O)O)C(=O)N[C@H](C(=O)N[C@@H](Cc1c[nH]cn1)C(=O)N[C@@H](CC(N)=O)C(=O)N[C@@H](Cc1ccccc1)C(N)=O)C(C)C)C(C)C` [SEQ. ID. NO: 24] (H-SV[X3]EIQLMHNLGKHLNSMERVEWLRKKLQDVHNF-NH2; N-terminus assumed) was run?
**A.** The EC50 was > 100 nM.

**Q.** What about the “PTHR2 Activation: Derivative EC50/PTH EC50” value (PTHR2) of the same compound?
**A.** Its value is “***”.

**Q.** What about the EC50 (PTHR2; read-out: PTHR1 EC50, Table 8, second value column (hPTHR2 by title), read-out: PTHR2 EC50) of the same compound?
**A.** The EC50 was > 100 nM.

**Q.** What about the EC50 (PTHR1; HEK-293 cells, GloSensor cAMP, read-out: EC50 (nM) of PTHR1 Activation) of the same compound?
**A.** Its EC50 is 30 ± 6.33 nM.

**Q.** And the EC50 (PTHR1; Table 8, hPTHR1, read-out: PTHR1 EC50)?
**A.** Its EC50 is 30 ± 6.33 nM.

**Q.** And the “PTHR1 Activation: Derivative EC50/PTH EC50” value (PTHR1)?
**A.** Its value is 78.84.

**Q.** Which “Tolerance Pattern of β AA” value (PTHR1 and PTHR2) does the source give for `CC[C@H](C)[C@H](NC(=O)[C@H](CCC(=O)O)NC(=O)[C@H](CO)NC(=O)[C@@H](NC(=O)[C@H](CN)CO)C(C)C)C(=O)N[C@@H](CCC(N)=O)C(=O)N[C@@H](CC(C)C)C(=O)N[C@@H](CCSC)C(=O)N[C@@H](Cc1c[nH]cn1)C(=O)N[C@@H](CC(N)=O)C(=O)N[C@@H](CC(C)C)C(=O)NCC(=O)N[C@@H](CCCCN)C(=O)N[C@@H](Cc1c[nH]cn1)C(=O)N[C@@H](CC(C)C)C(=O)N[C@@H](CC(N)=O)C(=O)N[C@@H](CO)C(=O)N[C@@H](CCSC)C(=O)N[C@@H](CCC(=O)O)C(=O)N[C@@H](CCCNC(=N)N)C(=O)N[C@H](C(=O)N[C@@H](CCC(=O)O)C(=O)N[C@@H](Cc1c[nH]c2ccccc12)C(=O)N[C@@H](CC(C)C)C(=O)N[C@@H](CCCNC(=N)N)C(=O)N[C@@H](CCCCN)C(=O)N[C@@H](CCCCN)C(=O)N[C@@H](CC(C)C)C(=O)N[C@@H](CCC(N)=O)C(=O)N[C@@H](CC(=O)O)C(=O)N[C@H](C(=O)N[C@@H](Cc1c[nH]cn1)C(=O)N[C@@H](CC(N)=O)C(=O)N[C@@H](Cc1ccccc1)C(N)=O)C(C)C)C(C)C` [SEQ. ID. NO: 30] (X11-VSEIQLMHNLGKHLNSMERVEWLRKKLQDVHNF-NH2) here?
**A.** The value was “*#”.

**Q.** And the “PTHR1 Activation: Derivative EC50/PTH EC50” value (PTHR1)?
**A.** Its value is 1.34.
